Patent publication US20140271661A1
These are yes or no findings as the source states them, for the method shown. Some results given as binding are weak or reduced against the parent protein; the word gives no strength.

Chains of the proteins cited; added tags and fusions are not shown. Residues count along the entry.
UniProt P01008, residues 33-464: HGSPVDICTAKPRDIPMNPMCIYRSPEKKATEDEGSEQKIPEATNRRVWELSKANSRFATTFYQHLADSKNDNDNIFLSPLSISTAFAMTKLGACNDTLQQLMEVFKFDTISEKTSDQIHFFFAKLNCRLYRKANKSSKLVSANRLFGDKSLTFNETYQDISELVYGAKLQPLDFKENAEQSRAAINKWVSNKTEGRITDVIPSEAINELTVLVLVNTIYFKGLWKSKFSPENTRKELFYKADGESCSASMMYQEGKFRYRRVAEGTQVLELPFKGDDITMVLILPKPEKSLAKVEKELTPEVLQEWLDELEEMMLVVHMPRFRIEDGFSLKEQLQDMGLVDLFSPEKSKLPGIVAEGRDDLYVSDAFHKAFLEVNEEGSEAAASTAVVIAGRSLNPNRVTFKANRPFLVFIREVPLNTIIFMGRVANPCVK

Target: human antithrombin β complexed with heparin (human ATβH) (human) (UniProt P01008)
Assay: panning and screening of human antibody libraries against human ATβ in complex with heparin

binding: binds
B1: TPP2803 IgG2, Germlined and converted to IgG2 (antibody, V domains shown)
VH: EVQLLESGGGLVQPGGSLRLSCAASGFTFSSYRMSWVRQAPGKGLEWVSRIYSSGGRTRYADSVKGRFTISRDNSKNTLYLQMNSLRAEDTAVYYCAREKASDLSGSFSEALDYWGQGTLVTVSS
VL: SSELTQDPAVSVALGQTVRITCQGDSLRSYYASWYQQKPGQAPVLVIYGKNNRPSGIPDRFSGSSSGNTASLTITGAQAEDEADYYCNSRDSSGNHLVFGGGTKLTVLG
